Measured values reported in publication PMC6759600.
Results are given in words; binding and its absence hold for the method and conditions named. Binding seen in cells or lysates may run through a third protein. Some results given as binding are weak or reduced against the parent protein; the word gives no strength. Sequences can lack the tags named with a protein.

Protein sequences, listed by entry. Tags and fused reporters are not part of them. Lines headed by an entry give the natural chain unless they say otherwise; changes in a name come on top. Residues count along the entry.
UniProt Q96SW2: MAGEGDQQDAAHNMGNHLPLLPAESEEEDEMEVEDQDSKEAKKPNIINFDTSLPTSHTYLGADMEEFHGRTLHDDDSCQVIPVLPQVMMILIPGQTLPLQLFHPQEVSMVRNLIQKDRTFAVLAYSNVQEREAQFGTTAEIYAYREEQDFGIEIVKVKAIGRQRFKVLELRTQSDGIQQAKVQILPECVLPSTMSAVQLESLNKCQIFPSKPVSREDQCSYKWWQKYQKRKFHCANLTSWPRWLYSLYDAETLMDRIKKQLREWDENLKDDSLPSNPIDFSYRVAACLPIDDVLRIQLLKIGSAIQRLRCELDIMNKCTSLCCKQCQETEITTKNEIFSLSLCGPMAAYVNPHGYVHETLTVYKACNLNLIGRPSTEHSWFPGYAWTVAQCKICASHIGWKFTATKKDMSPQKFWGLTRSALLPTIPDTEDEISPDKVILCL
Myc-CRBN 1-261: residues 1-261 of Q96SW2
Myc-CRBN 1-186: residues 1-186 of Q96SW2

What was measured:
Test in all cases: co-IP; HEK293T cells co-transfected, harvested 38 h after transfection; IP with anti-Myc antibody, immunoblot with anti-Flag or anti-Myc
[1] = biological target: Myc-CRBN 1-186 (UniProt Q96SW2)
[2] = biological target: Myc-CRBN 1-261 (UniProt Q96SW2)
[3] = biological target: Myc-CRBN wild type (UniProt Q96SW2)

Measured: binding

B1: Flag-ECSIT wild type (protein, UniProt Q9BQ95 49-431)
chain: SSEQSLVPSPPEPRQRPTKALVPFEDLFGQAPGGERDKASFLQTVQKFAEHSVRKRGHIDFIYLALRKMREYGVERDLAVYNQLLNIFPKEVFRPRNIIQRIFVHYPRQQECGIAVLEQMENHGVMPNKETEFLLIQIFGRKSYPMLKLVRLKLWFPRFMNVNPFPVPRDLPQDPVELAMFGLRHMEPDLSARVTIYQVPLPKDSTGAADPPQPHIVGIQSPDQQAALARHNPARPVFVEGPFSLWLRNKCVYYHILRADLLPPEEREVEETPEEWNLYYPMQLDLEYVRSGWDNYEFDINEVEEGPVFAMCMAGAHDQATMAKWIQGLQETNPTLAQIPVVFRLAGSTRELQTSSAGLEEPPLPEDHQEEDDNLQRQQQGQS
binds: [1] | [2] | [3]
